Laboratory results reported in patent US20240368226A1, “Cyclic Cell Penetrating Peptides For Treating Neisseria Gonorrhoeae Infections” (priority 2023, published 2024).
Where two headings read alike, the source gives them in different places. At least one peptide structure holds a part that was inferred or is arguable (an end, a ring closure or a residue). Some entries repeat one wording, which the source may state once for all of them. Where a SMILES comes first, the peptide text is derived from it. Bridges are numbered along the chain shown (N, C = ends). [ ]: non-standard residue; d: D form. Ahx = NCCCCCC(=O)O

Assays:
[1] = system: N. gonorrhoeae human challenge strain FA1090 1-81-S2 and MDR strains F89, H041 (nine strains for the linear CPP); type: cell-based, Neisseria gonorrhoeae; details: for susceptibility of the strains compared to the linear CPP: Example 1, FIG. 2; for bactericidal activity / survival (in words): FA1090, F89 and H041, increasing concentrations; for sensitivity of the gonococci compared to the linear CPP: at both 4 and 20 µM, four-hour treatment
[2] = system: sialylated N. gonorrhoeae (FA1090 1-81-S2, F89, H041); experiment: Bactericidal assay with sialylated gonococci grown on GC agar containing CMP-NANA; type: cell-based, Neisseria gonorrhoeae
[3] = system: TNF-α in supernatants of activated human THP-1 cells infected with gonococci; experiment: TNF-α expression from gonococcal infection of THP-1 cells (ELISA); type: cell-based; details: for effect of treatment on TNF-α levels: 4 µM; for TNF-α expression relative to the linear CPP: P<0.001; for levels of TNF-α / inflammatory signaling in infected THP-1 cells: moi of 1, CPP at 0, 4, 20 and 100 μM
[4] = system: S. aureus strains 8325-4 and Newman; type: cell-based, Staphylococcus aureus; details: 100 μM
Experimental: The sensitivity of a Gram positive species was also tested.
N. flavescens strain 4322, N. lactamica strain 1934, and N. subflava strain 52, were available from the collections of the late Dr. Herman Schneider of the Walter Reed Army Institute of Research and of the Neisseria Repository that was formerly housed at UC Berkeley. The 8325-4 and Newman are strains of S. aureus. The latter is β-hemolytic.
S. aureus were grown overnight on Difco GC agar containing 1% BBL Isovitalex Enrichment. Using a sterile cotton swab, bacterial colonies were placed in suspension in GC broth containing 1% BBL Isovitalex. Absorbance of the bacterial suspension at 595 nm was determined to enable dilution to approximately 4×10^6 cells/mL in GC broth. Aliquots of the suspension containing 8×10^5 bacteria along with the CPPs, diluted from stock solutions in DMSO, were added in GC broth containing 1% BBL Isovitalex to make a total volume of 200 μL/well. Bacteria in GC broth with Isovitalex and 1% DMSO were added to vehicle-only control wells. Each test condition was plated in sextuplicates. Peripheral wells of the 96-well plate were filled with filtered deionized water to minimize edge effects. After incubation in 5% CO2 at 37° C. for 18 h, plates were analyzed at 600-nm on an Epoch microtiter plate reader. The percentage inhibition of each sample was determined relative to the absorbance of the blank (GC broth only) and the vehicle-only controls. Any inhibition found to be less than 30% relative to the vehicle-only controls was further verified by plating the suspension on GC agar containing 1% Isovitalex, followed by overnight incubation and then counting to assess bacterial viability. If no growth was observed on the plate, then that test concentration was determined to be inhibitory.

[5] = system: invasion of ME-180 cells by FA1090 1-81-S2 gonococci; experiment: Invasion of human cervical epithelial cells by gonococci; type: cell-based; details: CPP 100 μM; moi of 5; 4 h
Experimental: Because the CPP was bactericidal for N. gonorrhoeae and, furthermore, could penetrate the bacteria, it was postulated that treatment may prevent invasion of human epithelial cells. Therefore, the effect of the CPP on the invasion of a human cervical epithelial cell line, ME-180, was tested using the AMP LL-37 for comparison. FA1090 1-81-S2 gonococci at a moi of 5 were incubated with ME-180 cells in 96-well plates with vehicle only, LL-37 (20 μM), or the CPP (100 μM) for 4 h.

In the case of N=C(N)NCCC[C@@H]1NC(=O)CCCCCNC(=O)[C@H](CCCNC(=N)N)NC(=O)[C@H](CCCNC(=N)N)NC(=O)CCCCCNC(=O)[C@H](CCCNC(=N)N)NC(=O)[C@H](CCCNC(=N)N)NC(=O)CCCCCNC(=O)[C@H](CCCNC(=N)N)NC(=O)[C@H](CCCNC(=N)N)NC(=O)CCCCCNC(=O)[C@H](CCCNC(=N)N)NC(=O)[C@@H](N)CSSC[C@@H](C(N)=O)NC1=O [DS cyclized CPP, CRXRRXRRXRRXRC—NH2] (H-CR[Ahx]RR[Ahx]RR[Ahx]RR[Ahx]RC-NH2; disulfide 1-14), the “susceptibility of the strains compared to the linear CPP” value ([1]; FA1090, F89, H041, 4 h, listed as Cyclic disulfide CPP) is reported as “greater killing”, the “susceptibility of the strains compared to the linear CPP” value ([1]; FA1090, F89, H041, 4 h, listed as disulfide cCPP) is reported as “significantly more susceptible” and the “rank of bactericidal potency among the three CPPs” value ([1]; FA1090, F89, H041, 4 h) is reported as “intermediate”. For the same compound, the “bactericidal activity / survival (in words)” value ([1]; 4 h) was “bactericidal”, the “bactericidal activity / survival (in words)” value ([1]; 4 h, listed as Cyclic disulfide CPP) was “significantly reduced” and the “bactericidal activity / survival (in words)” value ([1]; 4 h, listed as disulfide cCPP) was “bactericidal”. The “sensitivity of the gonococci compared to the linear CPP” value [1] was “significantly more sensitive”.

With N=C(N)NCCC[C@@H]1NC(=O)CSC[C@@H](C(N)=O)NC(=O)[C@H](CCCNC(=N)N)NC(=O)CCCCCNC(=O)[C@H](CCCNC(=N)N)NC(=O)[C@H](CCCNC(=N)N)NC(=O)CCCCCNC(=O)[C@H](CCCNC(=N)N)NC(=O)[C@H](CCCNC(=N)N)NC(=O)CCCCCNC(=O)[C@H](CCCNC(=N)N)NC(=O)[C@H](CCCNC(=N)N)NC(=O)CCCCCNC1=O [TE cyclized CPP, c [RXRRXRRXRRXRC(S—)]] ({CH2CO}-R[Ahx]RR[Ahx]RR[Ahx]RR[Ahx]RC-NH2; thioether N-13) the “sensitivity of F89 compared to the DS cyclized CPP” value ([1]; 4 µM, 4 h) was “significantly more”, the “sensitivity of H041 compared to the DS cyclized CPP” value ([1]; 4 µM, 4 h) was “tended to be more sensitive” and the “killing of MDR strain F89” value ([1]; 20 µM, 4 h) was “complete killing”. For the same compound, the “killing of MDR strain H041” value ([1]; 20 µM, 4 h) was “complete killing”, the “susceptibility of the strains compared to the linear CPP” value ([1]; FA1090, F89, H041, 4 h, listed as Cyclic thioether CPP) was “greater killing” and the “susceptibility of the strains compared to the linear CPP” value ([1]; FA1090, F89, H041, 4 h, listed as thioether cCPP) was “significantly more susceptible”. For the same compound, the “susceptibility of the strains compared to linear CPP” value ([1]; Example 3, concentration range of 4-100 μM, 4 h) was “significantly more susceptible”, the “bactericidal activity / survival (in words)” value ([1]; 4 h) was “bactericidal” and the “bactericidal activity / survival (in words)” value ([1]; 4 h, listed as Cyclic thioether CPP) was “significantly reduced”. The “bactericidal activity / survival (in words)” value ([1]; 4 h, listed as cCPP) was “bactericidal”, the “bactericidal activity / survival (in words)” value ([1]; 4 h, listed as thioether cCPP) was “bactericidal” and the “sensitivity of the gonococci compared to the linear CPP” value [1] was “significantly more sensitive”. The “increase of bactericidal potency for N. gonorrhoeae over the linear CPP” value ([1]; cyclization using a TE bond) was “approximately 10 fold”, the “bactericidal potency compared to linear CPP, sialylated bacteria” value ([2]; 4 µM, all 3 strains) was “more potent than the linear CPP” and the “bactericidal activity compared to linear CPP, sialylated bacteria” value ([2]; 20 µM, F89 and H041 strains) was “more bactericidal”. The “effect of treatment on TNF-α levels” value [3] was “little effect”, the “TNF-α expression relative to the linear CPP” value ([3]; 20 µM and 100 µM, THP-1 cells infected with F89) was “statistically significant decrease” and the “TNF-α levels relative to vehicle-only controls” value ([3]; 20 µM, FA1090 and F89) was “significant reductions”. The “TNF-α expression relative to the linear CPP” value ([3]; 20 µM, THP-1 cells infected with FA1090) was “statistically significant decrease”, the “TNF-α levels relative to vehicle-only controls” value ([3]; 100 µM, all bacteria (FA1090, F89, H041)) was “significant reductions” and the “reduction of TNF-α secreted by infected THP-1 cells compared to the linear CPP” value ([3]; Example 3) was “reduced to a greater degree”. The “S aureus survival after 4 h treatment” value ([4]; strain 8325-4) was 88.0 (±5.5) mean percentage of vehicle only control OD ± SEM and the “S aureus survival after 4 h treatment” value ([4]; strain Newman) was 37.1 (±4.8) mean percentage of vehicle only control OD ± SEM.

With N=C(N)NCCC[C@H](NC(=O)CCCCCNC(=O)[C@H](CCCNC(=N)N)NC(=O)[C@H](CCCNC(=N)N)NC(=O)CCCCCNC(=O)[C@H](CCCNC(=N)N)NC(=O)[C@H](CCCNC(=N)N)NC(=O)CCCCCNC(=O)[C@H](CCCNC(=N)N)NC(=O)[C@H](CCCNC(=N)N)NC(=O)CCCCCNC(=O)[C@@H](N)CCCNC(=N)N)C(=O)O [linear CPP, RXRRXRRXRRXR, reference compound] (H-R[Ahx]RR[Ahx]RR[Ahx]RR[Ahx]R-OH) the “bactericidal activity / survival (in words)” value ([1]; 4 h) was “bactericidal”, the “bactericidal activity / survival (in words)” value ([1]; 4 h, listed as Linear 12 amino acid CPP) was “significantly reduced” and the “lowest concentration at which killing was observed” value ([1]; tested from 0.032 to 100 μM) was 0.032 µM. For the same compound, the “effect of treatment on TNF-α levels” value [3] was “little effect”, the “levels of TNF-α / inflammatory signaling in infected THP-1 cells” value [3] was “reduced inflammatory signaling” and the “levels of TNF-α / inflammatory signaling in infected THP-1 cells” value ([3]; listed as CPP) was “significantly reduced”. The “invasion of ME-180 cells” value [5] was “completely inhibited invasion”, the “S aureus survival after 4 h treatment” value ([4]; strain 8325-4) was 130.5 (±2.4) mean percentage of vehicle only control OD ± SEM and the “S aureus survival after 4 h treatment” value ([4]; strain Newman) was 67.4 (±9.2) mean percentage of vehicle only control OD ± SEM.
